Assay results: the supplement of paper PMC7666118
This is one part of the list.

The chains behind the UniProt entries cited, without tags or fusion partners. Where a name states a change or a piece, a line headed by the entry shows the natural chain unless it says otherwise.
UniProt Q9H237: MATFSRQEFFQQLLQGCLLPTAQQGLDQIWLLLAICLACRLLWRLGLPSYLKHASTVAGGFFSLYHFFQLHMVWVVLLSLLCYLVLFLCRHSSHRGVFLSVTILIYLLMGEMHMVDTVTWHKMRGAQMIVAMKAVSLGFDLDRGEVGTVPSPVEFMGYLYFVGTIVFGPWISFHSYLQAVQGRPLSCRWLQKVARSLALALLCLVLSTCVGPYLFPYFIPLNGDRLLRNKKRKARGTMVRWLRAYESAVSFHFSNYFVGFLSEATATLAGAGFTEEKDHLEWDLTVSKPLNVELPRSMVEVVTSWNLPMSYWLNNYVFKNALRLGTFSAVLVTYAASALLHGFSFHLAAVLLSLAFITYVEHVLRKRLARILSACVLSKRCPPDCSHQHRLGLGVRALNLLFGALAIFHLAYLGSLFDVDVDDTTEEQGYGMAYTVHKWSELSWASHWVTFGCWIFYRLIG
UniProt Q15172: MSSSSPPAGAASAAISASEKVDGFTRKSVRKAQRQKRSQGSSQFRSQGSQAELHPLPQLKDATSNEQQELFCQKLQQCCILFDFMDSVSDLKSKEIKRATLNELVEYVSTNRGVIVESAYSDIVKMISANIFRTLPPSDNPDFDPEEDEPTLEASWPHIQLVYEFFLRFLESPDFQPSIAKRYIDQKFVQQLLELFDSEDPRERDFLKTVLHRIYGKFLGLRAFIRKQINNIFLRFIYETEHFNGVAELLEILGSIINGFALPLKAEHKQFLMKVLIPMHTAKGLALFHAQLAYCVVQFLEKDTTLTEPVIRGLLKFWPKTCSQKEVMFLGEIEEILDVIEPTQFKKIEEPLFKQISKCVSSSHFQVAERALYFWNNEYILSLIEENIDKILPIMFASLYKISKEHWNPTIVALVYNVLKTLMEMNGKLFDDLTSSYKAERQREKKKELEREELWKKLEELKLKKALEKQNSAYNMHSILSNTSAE
UniProt P00558: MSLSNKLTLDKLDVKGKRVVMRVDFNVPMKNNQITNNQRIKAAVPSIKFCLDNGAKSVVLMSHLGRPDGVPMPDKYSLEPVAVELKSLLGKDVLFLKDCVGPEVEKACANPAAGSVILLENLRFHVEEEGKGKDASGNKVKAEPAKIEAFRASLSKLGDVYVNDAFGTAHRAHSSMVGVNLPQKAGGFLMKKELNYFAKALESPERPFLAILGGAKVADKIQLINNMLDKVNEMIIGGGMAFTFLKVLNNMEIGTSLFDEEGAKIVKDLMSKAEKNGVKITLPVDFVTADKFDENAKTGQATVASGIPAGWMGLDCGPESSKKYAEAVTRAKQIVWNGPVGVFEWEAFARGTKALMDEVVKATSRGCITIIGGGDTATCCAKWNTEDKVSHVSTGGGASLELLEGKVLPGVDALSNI
UniProt Q9NVS9: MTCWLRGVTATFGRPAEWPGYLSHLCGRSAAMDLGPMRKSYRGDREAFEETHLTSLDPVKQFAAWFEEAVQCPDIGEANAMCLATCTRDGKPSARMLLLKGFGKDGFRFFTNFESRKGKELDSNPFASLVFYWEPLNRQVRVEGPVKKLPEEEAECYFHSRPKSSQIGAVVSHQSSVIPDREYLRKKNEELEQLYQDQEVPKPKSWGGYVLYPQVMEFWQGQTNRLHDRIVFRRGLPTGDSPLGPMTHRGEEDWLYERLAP
UniProt P13861, whole entry: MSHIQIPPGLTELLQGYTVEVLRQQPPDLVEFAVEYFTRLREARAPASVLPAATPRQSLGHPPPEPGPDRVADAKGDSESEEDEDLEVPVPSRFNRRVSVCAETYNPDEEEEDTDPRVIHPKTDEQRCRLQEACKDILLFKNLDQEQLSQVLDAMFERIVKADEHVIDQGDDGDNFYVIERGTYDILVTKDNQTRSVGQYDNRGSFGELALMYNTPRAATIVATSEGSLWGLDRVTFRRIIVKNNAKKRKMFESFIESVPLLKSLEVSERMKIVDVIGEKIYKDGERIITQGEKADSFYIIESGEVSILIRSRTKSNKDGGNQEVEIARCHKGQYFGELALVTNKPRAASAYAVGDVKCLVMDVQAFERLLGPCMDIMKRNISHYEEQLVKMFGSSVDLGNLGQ
UniProt Q9H307: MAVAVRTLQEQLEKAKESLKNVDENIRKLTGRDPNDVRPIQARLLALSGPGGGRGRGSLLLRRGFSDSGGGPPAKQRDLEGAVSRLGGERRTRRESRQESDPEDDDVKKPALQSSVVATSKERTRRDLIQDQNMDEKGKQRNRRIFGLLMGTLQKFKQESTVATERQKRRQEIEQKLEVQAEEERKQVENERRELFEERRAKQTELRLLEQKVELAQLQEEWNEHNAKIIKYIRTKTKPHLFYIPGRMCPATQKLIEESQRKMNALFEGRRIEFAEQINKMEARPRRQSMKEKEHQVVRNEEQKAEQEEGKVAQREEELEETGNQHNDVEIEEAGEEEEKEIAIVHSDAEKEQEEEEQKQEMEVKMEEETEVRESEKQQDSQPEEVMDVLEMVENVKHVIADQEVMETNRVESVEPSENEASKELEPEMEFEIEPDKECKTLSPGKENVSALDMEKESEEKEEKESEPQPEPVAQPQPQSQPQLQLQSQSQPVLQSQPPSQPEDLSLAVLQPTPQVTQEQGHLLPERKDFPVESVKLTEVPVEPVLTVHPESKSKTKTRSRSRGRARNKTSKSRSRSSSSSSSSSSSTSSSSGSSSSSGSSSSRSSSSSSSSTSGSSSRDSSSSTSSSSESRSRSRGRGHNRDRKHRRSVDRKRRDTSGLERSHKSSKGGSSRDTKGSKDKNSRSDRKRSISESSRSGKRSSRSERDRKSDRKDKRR
UniProt O15031: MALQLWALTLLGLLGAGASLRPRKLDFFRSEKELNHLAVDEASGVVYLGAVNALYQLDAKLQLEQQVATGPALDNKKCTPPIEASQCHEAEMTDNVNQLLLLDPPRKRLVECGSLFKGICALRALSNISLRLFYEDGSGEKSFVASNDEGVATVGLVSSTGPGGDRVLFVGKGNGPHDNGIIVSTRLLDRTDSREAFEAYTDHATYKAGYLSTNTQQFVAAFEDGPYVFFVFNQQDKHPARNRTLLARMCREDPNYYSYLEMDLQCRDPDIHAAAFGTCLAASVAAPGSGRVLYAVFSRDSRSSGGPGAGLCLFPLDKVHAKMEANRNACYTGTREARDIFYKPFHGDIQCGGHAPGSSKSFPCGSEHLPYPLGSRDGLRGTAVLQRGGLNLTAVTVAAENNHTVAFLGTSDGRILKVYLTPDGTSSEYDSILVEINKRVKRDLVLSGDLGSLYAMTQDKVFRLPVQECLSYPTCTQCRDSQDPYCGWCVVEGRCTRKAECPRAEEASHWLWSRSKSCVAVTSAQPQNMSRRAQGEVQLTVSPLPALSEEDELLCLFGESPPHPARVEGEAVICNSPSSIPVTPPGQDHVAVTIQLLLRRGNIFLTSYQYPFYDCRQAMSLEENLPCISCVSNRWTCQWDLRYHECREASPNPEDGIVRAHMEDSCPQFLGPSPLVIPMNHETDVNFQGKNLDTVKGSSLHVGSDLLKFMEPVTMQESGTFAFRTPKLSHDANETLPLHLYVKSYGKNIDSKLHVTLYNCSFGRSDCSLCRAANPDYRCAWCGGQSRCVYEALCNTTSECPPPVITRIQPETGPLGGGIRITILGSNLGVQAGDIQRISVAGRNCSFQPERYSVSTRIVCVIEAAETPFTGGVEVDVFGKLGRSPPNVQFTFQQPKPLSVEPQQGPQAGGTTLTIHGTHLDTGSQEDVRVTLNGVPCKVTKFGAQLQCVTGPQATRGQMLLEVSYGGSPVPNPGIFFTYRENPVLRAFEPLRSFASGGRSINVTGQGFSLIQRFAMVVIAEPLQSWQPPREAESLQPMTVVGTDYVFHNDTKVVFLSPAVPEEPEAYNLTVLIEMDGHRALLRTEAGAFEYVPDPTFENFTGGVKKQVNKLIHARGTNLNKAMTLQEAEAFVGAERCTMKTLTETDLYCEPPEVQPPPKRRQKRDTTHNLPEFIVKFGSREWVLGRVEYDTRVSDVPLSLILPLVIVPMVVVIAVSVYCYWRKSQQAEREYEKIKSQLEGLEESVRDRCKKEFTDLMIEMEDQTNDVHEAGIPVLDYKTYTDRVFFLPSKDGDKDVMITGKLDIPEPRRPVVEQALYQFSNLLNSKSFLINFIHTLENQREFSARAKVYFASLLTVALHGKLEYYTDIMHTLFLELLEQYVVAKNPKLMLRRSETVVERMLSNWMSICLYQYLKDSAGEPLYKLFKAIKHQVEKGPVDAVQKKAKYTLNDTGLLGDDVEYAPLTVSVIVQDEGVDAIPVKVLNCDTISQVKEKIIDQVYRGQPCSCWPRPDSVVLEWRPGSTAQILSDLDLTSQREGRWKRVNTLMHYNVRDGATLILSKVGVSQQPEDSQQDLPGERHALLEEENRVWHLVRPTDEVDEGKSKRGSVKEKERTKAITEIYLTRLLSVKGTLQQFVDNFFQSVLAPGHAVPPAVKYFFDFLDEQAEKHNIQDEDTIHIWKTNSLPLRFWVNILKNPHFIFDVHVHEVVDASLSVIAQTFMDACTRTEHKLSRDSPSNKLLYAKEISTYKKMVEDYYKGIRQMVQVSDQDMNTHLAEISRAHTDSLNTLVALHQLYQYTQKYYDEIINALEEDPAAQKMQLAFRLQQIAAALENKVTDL
UniProt Q6P2P2: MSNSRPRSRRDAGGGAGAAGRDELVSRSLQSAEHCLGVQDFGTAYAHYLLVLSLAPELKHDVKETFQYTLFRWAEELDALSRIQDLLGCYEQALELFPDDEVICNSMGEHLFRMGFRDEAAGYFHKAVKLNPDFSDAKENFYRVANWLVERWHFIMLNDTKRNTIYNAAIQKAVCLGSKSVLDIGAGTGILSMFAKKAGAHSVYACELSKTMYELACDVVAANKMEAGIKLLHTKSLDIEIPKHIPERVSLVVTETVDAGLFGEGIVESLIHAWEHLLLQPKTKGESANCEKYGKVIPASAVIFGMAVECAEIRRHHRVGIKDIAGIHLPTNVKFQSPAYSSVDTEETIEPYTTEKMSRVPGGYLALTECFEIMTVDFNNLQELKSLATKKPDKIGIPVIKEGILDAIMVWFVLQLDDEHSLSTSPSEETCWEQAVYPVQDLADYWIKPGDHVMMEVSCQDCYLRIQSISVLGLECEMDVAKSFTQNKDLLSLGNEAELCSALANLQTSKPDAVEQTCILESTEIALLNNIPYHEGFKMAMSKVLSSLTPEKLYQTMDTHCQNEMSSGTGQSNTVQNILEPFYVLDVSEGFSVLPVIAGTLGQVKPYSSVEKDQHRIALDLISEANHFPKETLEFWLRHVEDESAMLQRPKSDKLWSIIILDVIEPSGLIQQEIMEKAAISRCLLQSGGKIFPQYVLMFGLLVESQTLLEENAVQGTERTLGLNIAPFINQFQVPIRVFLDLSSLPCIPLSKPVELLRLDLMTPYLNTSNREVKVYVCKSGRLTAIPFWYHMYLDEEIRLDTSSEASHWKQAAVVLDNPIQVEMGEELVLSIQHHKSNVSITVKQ
UniProt O75151: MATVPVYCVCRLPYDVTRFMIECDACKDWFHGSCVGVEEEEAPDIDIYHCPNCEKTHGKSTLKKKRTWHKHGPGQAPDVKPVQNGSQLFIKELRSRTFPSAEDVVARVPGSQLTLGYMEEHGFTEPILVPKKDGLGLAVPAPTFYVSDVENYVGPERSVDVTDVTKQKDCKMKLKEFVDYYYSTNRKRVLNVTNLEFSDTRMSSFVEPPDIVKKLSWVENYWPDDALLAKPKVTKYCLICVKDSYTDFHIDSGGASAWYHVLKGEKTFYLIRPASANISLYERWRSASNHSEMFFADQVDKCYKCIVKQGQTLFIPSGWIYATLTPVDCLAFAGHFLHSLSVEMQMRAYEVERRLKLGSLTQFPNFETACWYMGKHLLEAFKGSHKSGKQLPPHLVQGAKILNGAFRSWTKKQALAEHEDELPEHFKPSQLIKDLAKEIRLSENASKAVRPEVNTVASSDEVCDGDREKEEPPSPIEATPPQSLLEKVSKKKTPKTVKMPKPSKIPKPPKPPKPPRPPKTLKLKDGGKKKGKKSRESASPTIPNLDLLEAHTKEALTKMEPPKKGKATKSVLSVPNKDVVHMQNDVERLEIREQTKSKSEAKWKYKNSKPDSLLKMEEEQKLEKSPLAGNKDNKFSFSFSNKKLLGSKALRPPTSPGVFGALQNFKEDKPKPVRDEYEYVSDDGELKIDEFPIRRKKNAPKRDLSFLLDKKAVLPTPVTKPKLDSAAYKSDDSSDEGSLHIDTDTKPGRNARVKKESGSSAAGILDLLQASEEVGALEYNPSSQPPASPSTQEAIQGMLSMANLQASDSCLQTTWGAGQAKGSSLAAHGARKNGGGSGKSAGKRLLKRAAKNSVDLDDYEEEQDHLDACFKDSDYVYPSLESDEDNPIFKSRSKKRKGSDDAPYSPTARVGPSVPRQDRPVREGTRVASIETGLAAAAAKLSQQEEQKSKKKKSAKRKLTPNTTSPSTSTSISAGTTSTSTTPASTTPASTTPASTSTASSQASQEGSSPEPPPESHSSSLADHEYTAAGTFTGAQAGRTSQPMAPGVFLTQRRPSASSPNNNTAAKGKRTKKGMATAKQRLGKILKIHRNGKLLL

compound: COc1ccc(Cn2ccc3ccc(C(=O)NO)cc32)cc1; test: dose-dependent thermal stabilisation call (2D-TPP, DLPTP, 10% FDR) (binary (1 = stabilised)); higher = stabilised by the compound; settings: system: HL-60 intact cells; concentration range 0.04-10 µM

**Q.** PNPLA6 (UniProt Q8IY17) was tested. Which “dose-dependent thermal stabilisation call” value did it give?
**A.** The value was inactive: 0.

**Q.** How did the “dose-dependent thermal stabilisation call” value turn out when PORCN (UniProt Q9H237) was run?
**A.** Its value is inactive: 0.

**Q.** PPP4R2 (UniProt Q9NY27) was tested. Which “dose-dependent thermal stabilisation call” value did it give?
**A.** The value was inactive: 0.

**Q.** Which “dose-dependent thermal stabilisation call” value does the source give for PRMT1 (UniProt Q99873) here?
**A.** Its value is inactive: 0.

**Q.** For PPP2R5A (UniProt Q15172), which “dose-dependent thermal stabilisation call” value is on record?
**A.** The value was inactive: 0.

**Q.** With PGK1 (UniProt P00558) as the target, how does the “dose-dependent thermal stabilisation call” value read?
**A.** Its value is inactive: 0.

**Q.** How did the “dose-dependent thermal stabilisation call” value turn out when PLEC1 (UniProt Q15149) was run?
**A.** Its value is inactive: 0.

**Q.** Which “dose-dependent thermal stabilisation call” value does the source give for POLR2G (UniProt P62487) here?
**A.** Its value is inactive: 0.

**Q.** PLK1 (UniProt P53350) was tested. Which “dose-dependent thermal stabilisation call” value did it give?
**A.** Its value is inactive: 0.

**Q.** Which “dose-dependent thermal stabilisation call” value does the source give for PMS2 (UniProt P54278) here?
**A.** The value was inactive: 0.

**Q.** PNPO (UniProt Q9NVS9) was tested. Which “dose-dependent thermal stabilisation call” value did it give?
**A.** Its value is inactive: 0.

**Q.** Which “dose-dependent thermal stabilisation call” value does the source give for PPP1R12A (UniProt O14974) here?
**A.** The value was inactive: 0.

**Q.** Which “dose-dependent thermal stabilisation call” value does the source give for PRKAR2A (UniProt P13861) here?
**A.** The value was inactive: 0.

**Q.** Which “dose-dependent thermal stabilisation call” value does the source give for POLR2H (UniProt P52434) here?
**A.** Its value is inactive: 0.

**Q.** For POP1 (UniProt Q99575), which “dose-dependent thermal stabilisation call” value is on record?
**A.** The value was inactive: 0.

**Q.** Which “dose-dependent thermal stabilisation call” value does the source give for PPM1F (UniProt P49593) here?
**A.** Its value is inactive: 0.

**Q.** POFUT1 (UniProt Q9H488) was tested. Which “dose-dependent thermal stabilisation call” value did it give?
**A.** The value was inactive: 0.

**Q.** With PHKG2 (UniProt P15735) as the target, how does the “dose-dependent thermal stabilisation call” value read?
**A.** Its value is inactive: 0.

**Q.** POLR2I (UniProt P36954) was tested. Which “dose-dependent thermal stabilisation call” value did it give?
**A.** Its value is inactive: 0.

**Q.** POLD1 (UniProt P28340) was tested. Which “dose-dependent thermal stabilisation call” value did it give?
**A.** The value was inactive: 0.

**Q.** PIK3R4 (UniProt Q99570) was tested. Which “dose-dependent thermal stabilisation call” value did it give?
**A.** Its value is inactive: 0.

**Q.** With PPP3CB (UniProt P16298) as the target, how does the “dose-dependent thermal stabilisation call” value read?
**A.** Its value is inactive: 0.

**Q.** How did the “dose-dependent thermal stabilisation call” value turn out when PNN (UniProt Q9H307) was run?
**A.** Its value is inactive: 0.

**Q.** For PLCG2 (UniProt P16885), which “dose-dependent thermal stabilisation call” value is on record?
**A.** Its value is inactive: 0.

**Q.** PRC1 (UniProt O43663) was tested. Which “dose-dependent thermal stabilisation call” value did it give?
**A.** Its value is inactive: 0.

**Q.** Which “dose-dependent thermal stabilisation call” value does the source give for PRKRIR (UniProt O43422) here?
**A.** The value was inactive: 0.

**Q.** PGM3 (UniProt O95394) was tested. Which “dose-dependent thermal stabilisation call” value did it give?
**A.** Its value is inactive: 0.

**Q.** PLXNB2 (UniProt O15031) was tested. Which “dose-dependent thermal stabilisation call” value did it give?
**A.** Its value is inactive: 0.

**Q.** POLG (UniProt P54098) was tested. Which “dose-dependent thermal stabilisation call” value did it give?
**A.** The value was inactive: 0.

**Q.** With PKP4 (UniProt Q99569) as the target, how does the “dose-dependent thermal stabilisation call” value read?
**A.** Its value is inactive: 0.

**Q.** For PIH1D1 (UniProt Q9NWS0), which “dose-dependent thermal stabilisation call” value is on record?
**A.** Its value is inactive: 0.

**Q.** Which “dose-dependent thermal stabilisation call” value does the source give for PRMT10 (UniProt Q6P2P2) here?
**A.** The value was inactive: 0.

**Q.** For PHF2 (UniProt O75151), which “dose-dependent thermal stabilisation call” value is on record?
**A.** Its value is inactive: 0.

**Q.** With PRDX4 (UniProt Q13162) as the target, how does the “dose-dependent thermal stabilisation call” value read?
**A.** The value was inactive: 0.

**Q.** With PIP4K2A (UniProt P48426) as the target, how does the “dose-dependent thermal stabilisation call” value read?
**A.** Its value is inactive: 0.

**Q.** PLAA (UniProt Q9Y263) was tested. Which “dose-dependent thermal stabilisation call” value did it give?
**A.** Its value is inactive: 0.

**Q.** Which “dose-dependent thermal stabilisation call” value does the source give for PLOD3 (UniProt O60568) here?
**A.** Its value is inactive: 0.
